The targets with a hit were mostly taken out for another list; the other results follow. The data scatter; read single values as rough. Only a part is listed here, and it is no random draw.
compound: COC(=O)/C=C/c1ccccc1 [methyl cinnamate]; assay: log2 ratio of iodoacetamide-alkyne labeling of the cysteine site, DMSO over compound (competition); higher = stronger covalent engagement of the cysteine by the compound, active = 1 or more; conditions: 500 µM; treatment time 1 h; system: HEK293T cell lysate
Outline: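 HEK293T lysate at 2 mg/mL was treated with vehicle or electrophile (500 µM) for 1 h at ambient temperature, then labelled with iodoacetamide alkyne (1 h), clicked to sCIP-TMT reagents, pooled, digested with trypsin overnight at 37 °C, enriched on streptavidin and eluted with acid. Peptides were analysed by Orbitrap Eclipse LC-MS/MS with FAIMS and quantified in FragPipe, using duplicate channels and three replicates, with cysteines quantified in only one replicate excluded. The log2 competition ratio for each cysteine is the mean control-channel reporter intensity divided by the mean compound-channel reporter intensity.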

Chains of the proteins cited; added tags and fusions are not shown. Lines headed by an entry give the natural chain unless they say otherwise; changes in a name come on top.
UniProt Q8IZ69: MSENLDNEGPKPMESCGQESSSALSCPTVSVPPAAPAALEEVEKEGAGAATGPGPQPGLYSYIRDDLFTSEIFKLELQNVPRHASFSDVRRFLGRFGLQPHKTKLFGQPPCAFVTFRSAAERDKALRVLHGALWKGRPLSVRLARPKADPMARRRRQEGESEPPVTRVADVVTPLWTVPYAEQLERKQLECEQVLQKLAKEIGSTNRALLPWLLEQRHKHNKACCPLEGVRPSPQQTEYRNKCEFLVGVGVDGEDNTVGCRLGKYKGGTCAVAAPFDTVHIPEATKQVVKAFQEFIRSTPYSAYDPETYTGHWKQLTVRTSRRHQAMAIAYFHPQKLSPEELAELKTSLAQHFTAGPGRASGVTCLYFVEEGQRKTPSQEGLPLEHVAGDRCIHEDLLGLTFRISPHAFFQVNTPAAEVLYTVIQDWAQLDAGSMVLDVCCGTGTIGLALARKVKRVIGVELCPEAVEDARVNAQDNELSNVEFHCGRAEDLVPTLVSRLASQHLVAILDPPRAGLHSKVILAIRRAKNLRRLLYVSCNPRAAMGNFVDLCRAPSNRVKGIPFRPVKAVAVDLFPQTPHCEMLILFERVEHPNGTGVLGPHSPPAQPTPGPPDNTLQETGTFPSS
UniProt Q86XN8: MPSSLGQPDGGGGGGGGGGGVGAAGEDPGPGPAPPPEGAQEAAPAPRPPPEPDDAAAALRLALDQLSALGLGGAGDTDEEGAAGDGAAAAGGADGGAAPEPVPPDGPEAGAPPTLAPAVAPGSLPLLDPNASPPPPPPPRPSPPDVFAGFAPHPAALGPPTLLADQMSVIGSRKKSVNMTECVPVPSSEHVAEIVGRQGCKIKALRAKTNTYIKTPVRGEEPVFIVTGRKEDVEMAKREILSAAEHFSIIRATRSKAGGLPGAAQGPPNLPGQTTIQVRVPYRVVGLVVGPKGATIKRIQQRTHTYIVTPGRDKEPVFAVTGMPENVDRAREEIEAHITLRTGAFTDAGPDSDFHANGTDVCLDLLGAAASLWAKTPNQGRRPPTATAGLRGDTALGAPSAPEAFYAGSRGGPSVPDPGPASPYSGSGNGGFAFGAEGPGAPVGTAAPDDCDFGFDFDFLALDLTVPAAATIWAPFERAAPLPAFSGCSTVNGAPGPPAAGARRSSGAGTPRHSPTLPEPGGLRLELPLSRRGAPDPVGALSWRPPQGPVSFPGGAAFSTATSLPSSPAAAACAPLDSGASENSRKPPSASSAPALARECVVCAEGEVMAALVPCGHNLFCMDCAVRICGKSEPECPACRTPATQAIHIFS
UniProt Q7Z2K8: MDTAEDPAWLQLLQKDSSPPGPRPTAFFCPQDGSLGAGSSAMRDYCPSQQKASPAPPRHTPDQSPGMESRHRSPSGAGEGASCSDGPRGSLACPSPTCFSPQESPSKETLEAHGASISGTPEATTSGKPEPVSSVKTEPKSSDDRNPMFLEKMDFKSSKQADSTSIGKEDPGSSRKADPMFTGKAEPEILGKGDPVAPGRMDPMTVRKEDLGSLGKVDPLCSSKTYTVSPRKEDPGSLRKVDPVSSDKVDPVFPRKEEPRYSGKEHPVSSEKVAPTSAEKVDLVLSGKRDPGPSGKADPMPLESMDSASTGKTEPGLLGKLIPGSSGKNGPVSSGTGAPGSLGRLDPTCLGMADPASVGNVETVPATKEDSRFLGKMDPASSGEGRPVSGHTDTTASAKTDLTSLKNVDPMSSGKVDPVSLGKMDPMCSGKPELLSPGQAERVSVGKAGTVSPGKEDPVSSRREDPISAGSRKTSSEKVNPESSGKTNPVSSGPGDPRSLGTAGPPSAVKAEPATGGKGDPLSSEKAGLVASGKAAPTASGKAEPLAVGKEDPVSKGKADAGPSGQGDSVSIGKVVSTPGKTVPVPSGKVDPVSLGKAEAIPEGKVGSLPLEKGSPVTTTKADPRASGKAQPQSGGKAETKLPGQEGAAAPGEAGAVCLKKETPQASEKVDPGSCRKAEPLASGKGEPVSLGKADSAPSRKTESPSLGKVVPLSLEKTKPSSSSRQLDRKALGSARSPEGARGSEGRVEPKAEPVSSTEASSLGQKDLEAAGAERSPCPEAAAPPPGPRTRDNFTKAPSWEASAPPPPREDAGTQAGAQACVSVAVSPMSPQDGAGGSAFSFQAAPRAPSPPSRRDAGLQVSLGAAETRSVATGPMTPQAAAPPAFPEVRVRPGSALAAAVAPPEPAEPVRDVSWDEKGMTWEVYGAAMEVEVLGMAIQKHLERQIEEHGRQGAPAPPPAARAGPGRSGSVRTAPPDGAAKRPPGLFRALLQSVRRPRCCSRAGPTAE
UniProt Q86XL3: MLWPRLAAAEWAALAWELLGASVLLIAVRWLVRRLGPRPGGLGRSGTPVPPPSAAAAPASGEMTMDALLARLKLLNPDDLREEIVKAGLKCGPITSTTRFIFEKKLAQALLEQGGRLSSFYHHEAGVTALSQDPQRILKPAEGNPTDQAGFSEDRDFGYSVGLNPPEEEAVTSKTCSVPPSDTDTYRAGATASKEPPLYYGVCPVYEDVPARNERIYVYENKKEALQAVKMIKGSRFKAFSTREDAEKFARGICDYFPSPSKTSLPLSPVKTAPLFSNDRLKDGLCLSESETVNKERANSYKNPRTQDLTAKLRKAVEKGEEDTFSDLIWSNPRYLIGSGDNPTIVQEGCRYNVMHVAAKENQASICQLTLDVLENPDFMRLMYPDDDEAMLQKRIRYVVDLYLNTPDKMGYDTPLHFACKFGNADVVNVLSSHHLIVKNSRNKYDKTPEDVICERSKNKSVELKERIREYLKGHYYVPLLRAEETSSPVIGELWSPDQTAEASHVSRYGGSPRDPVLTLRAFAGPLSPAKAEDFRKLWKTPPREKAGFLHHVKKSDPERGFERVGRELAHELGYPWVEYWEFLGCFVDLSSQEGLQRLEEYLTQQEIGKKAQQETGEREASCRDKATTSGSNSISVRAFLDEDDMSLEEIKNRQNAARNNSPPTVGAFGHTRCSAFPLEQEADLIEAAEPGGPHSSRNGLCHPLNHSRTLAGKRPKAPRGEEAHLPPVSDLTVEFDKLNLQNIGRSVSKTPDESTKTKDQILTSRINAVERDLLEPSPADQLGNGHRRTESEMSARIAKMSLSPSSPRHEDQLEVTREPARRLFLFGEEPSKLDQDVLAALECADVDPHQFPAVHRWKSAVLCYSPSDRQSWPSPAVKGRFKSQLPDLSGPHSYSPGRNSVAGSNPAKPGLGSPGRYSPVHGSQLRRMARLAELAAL
UniProt Q7Z4G1, whole entry: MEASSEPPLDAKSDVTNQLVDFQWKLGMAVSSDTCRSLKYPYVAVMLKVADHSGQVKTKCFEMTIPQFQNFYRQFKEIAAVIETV
UniProt Q8IYI6: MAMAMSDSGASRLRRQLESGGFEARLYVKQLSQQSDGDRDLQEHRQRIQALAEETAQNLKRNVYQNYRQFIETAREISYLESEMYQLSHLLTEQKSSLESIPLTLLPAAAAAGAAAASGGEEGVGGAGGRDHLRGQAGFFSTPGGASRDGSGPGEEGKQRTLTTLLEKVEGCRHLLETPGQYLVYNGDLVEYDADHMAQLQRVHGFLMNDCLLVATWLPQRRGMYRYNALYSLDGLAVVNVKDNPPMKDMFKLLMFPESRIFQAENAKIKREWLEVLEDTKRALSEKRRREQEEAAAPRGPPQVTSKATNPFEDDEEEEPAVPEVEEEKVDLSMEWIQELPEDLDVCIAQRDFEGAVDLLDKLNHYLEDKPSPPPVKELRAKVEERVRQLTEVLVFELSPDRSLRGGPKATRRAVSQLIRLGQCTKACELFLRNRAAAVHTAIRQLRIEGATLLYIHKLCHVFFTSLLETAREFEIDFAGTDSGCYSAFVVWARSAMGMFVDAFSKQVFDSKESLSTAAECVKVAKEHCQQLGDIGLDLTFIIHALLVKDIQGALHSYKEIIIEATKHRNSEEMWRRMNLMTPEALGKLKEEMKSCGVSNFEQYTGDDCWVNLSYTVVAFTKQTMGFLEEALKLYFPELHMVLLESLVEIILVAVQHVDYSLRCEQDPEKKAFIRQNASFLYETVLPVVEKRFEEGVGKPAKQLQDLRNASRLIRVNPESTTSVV
UniProt Q8IWD4: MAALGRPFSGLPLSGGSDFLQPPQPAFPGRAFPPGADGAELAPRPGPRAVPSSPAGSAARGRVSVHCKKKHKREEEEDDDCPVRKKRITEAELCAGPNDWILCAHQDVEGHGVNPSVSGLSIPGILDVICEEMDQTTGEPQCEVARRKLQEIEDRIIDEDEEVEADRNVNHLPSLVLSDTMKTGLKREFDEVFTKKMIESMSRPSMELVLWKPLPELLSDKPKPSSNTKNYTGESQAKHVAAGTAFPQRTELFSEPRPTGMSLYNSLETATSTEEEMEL
UniProt Q86VP6: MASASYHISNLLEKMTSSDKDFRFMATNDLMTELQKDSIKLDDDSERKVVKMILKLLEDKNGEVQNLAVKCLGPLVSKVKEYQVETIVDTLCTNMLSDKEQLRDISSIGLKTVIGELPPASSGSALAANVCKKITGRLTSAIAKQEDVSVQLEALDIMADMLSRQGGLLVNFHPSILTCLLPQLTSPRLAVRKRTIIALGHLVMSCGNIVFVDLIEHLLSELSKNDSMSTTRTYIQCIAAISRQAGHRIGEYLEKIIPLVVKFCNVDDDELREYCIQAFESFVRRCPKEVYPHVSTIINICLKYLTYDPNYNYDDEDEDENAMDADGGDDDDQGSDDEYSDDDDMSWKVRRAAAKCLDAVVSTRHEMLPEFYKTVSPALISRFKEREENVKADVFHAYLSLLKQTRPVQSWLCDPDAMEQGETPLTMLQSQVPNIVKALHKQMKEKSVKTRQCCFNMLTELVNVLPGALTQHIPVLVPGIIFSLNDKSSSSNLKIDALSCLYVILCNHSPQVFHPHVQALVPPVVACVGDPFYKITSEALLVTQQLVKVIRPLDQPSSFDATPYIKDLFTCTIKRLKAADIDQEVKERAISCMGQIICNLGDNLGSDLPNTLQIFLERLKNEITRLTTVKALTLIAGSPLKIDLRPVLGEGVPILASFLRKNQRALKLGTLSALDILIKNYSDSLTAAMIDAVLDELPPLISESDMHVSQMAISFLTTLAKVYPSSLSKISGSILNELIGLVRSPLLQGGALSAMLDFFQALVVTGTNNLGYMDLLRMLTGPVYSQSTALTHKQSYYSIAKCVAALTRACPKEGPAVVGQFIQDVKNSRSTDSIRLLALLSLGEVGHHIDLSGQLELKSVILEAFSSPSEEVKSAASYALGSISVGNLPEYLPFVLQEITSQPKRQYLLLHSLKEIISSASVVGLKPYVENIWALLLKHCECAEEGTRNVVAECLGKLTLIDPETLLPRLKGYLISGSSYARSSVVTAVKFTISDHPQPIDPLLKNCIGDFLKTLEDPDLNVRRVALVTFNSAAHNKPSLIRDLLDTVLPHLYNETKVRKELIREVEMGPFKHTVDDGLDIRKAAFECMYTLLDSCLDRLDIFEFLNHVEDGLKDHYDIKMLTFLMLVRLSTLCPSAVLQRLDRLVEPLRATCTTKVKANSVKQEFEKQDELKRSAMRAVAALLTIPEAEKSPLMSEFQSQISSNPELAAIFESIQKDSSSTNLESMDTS
UniProt Q7RTV0, whole entry, looked up: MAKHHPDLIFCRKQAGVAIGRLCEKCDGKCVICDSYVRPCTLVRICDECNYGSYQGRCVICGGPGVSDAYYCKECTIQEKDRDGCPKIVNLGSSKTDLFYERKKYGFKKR
UniProt Q7Z7L1: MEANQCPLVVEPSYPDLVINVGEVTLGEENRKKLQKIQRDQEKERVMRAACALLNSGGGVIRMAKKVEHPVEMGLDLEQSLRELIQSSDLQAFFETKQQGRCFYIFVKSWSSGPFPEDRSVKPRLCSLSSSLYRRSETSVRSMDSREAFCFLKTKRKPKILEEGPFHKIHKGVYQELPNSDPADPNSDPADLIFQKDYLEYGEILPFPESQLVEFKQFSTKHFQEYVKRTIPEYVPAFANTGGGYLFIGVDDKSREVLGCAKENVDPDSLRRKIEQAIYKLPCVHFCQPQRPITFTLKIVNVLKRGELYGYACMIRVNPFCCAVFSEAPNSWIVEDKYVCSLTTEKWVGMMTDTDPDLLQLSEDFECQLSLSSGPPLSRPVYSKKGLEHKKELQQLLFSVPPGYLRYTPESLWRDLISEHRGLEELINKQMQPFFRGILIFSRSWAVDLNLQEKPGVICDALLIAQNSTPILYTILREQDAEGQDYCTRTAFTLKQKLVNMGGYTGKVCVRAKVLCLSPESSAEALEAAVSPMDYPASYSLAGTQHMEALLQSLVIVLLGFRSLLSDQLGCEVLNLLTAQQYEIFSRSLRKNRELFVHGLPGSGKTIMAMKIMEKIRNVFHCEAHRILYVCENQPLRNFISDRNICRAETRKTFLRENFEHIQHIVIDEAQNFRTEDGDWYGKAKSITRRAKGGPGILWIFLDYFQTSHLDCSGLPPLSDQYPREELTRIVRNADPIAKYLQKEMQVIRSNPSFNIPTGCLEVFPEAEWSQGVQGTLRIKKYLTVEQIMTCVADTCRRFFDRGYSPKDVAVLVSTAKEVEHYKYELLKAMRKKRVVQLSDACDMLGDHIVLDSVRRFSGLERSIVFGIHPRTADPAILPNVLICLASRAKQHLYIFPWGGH

Row | Target | log2 ratio of iodoacetamide-alkyne labeling
1 | DHX40 C42 (UniProt Q8IX18) | inactive: 0.339
2 | MICAL3 C1760 (UniProt Q7RTP6) | inactive: 0.0974
3 | LARP4 C599 (UniProt Q71RC2) | inactive: 0.319
4 | NET1 C522 (UniProt Q7Z628) | inactive: 0.0462
5 | TRMT2A C392 (UniProt Q8IZ69) | inactive: 0.14
6 | ISCA2 C146 (UniProt Q86U28) | inactive: 0.503
7 | UniProt Q7L8W6_C88 | active: 1.11
8 | MEX3D C362 (UniProt Q86XN8) | inactive: 0.0241
9 | HEATR3 C534 (UniProt Q7Z4Q2) | inactive: 0.15
10 | UniProt Q7Z695_C54 | inactive: 0.323
11 | GPRIN1 C221 (UniProt Q7Z2K8) | inactive: 0.0979
12 | SND1 C31 (UniProt Q7KZF4) | inactive: 0.0503
13 | UniProt Q7Z5K2_C94 | inactive: -0.0812
14 | UniProt Q86UW7_C639 | inactive: 0.0758
15 | ANKLE2 C844 (UniProt Q86XL3) | inactive: -0.00862
16 | COMMD6 C60 (UniProt Q7Z4G1) | inactive: 0.207
17 | USP48 C145 (UniProt Q86UV5) | inactive: -0.348
18 | DHX37 C1083 (UniProt Q8IY37) | inactive: 0.484
19 | DHX30 C484 (UniProt Q7L2E3) | inactive: 0.221

Random excerpt: two entries already listed.
Row | Target | log2 ratio of iodoacetamide-alkyne labeling
18 | DHX37 C1083 (UniProt Q8IY37) | inactive: 0.484
12 | SND1 C31 (UniProt Q7KZF4) | inactive: 0.0503

Next part

Row | Target | log2 ratio of iodoacetamide-alkyne labeling
20 | EXOC8 C172 (UniProt Q8IYI6) | inactive: 0.102
21 | DCP2 C395 (UniProt Q8IU60) | inactive: 0.507
22 | TRMT2A C463 (UniProt Q8IZ69) | inactive: 0.259
23 | DCP2 C158 (UniProt Q8IU60) | inactive: 0.024
24 | CCDC117 C81 (UniProt Q8IWD4) | inactive: 0.462
25 | CAND1 C131 (UniProt Q86VP6) | inactive: 0.0918
26 | SETX C997 (UniProt Q7Z333) | inactive: 0.115
27 | HUWE1 C612 (UniProt Q7Z6Z7) | inactive: 0.0935
28 | UniProt Q7RTV0_C11 | inactive: 0.063
29 | IRF2BP1 C239 (UniProt Q8IU81) | inactive: 0.102
30 | UniProt Q7Z2Z2_C599 | inactive: -0.126
31 | RBBP6 C27 (UniProt Q7Z6E9) | inactive: 0.284
32 | DHX30 C346 (UniProt Q7L2E3) | inactive: 0.215
33 | IRF2BP1 C363 (UniProt Q8IU81) | inactive: 0.279
34 | UniProt Q7Z2Z2_C646 | inactive: -0.0778
35 | HEATR3 C173 (UniProt Q7Z4Q2) | inactive: -0.115
36 | SLFN11 C126 (UniProt Q7Z7L1) | inactive: 0.0381
37 | Q8F0_C443 | inactive: 0.0691

Source: the supplement of paper PMC11006884
